Laboratory results published in PMC13064845.
No constants are given. Whether binding was seen depends on the method and setting. Binding seen in cells or lysates may run through a third protein. Some entries that bind do so weakly or less than the wild type. Tags and fused reporters may be left off the sequences shown.

Protein sequences, listed by entry. Tags and fused reporters are not part of them. Residues count along the entry.
UniProt P35441, residues 19-1170: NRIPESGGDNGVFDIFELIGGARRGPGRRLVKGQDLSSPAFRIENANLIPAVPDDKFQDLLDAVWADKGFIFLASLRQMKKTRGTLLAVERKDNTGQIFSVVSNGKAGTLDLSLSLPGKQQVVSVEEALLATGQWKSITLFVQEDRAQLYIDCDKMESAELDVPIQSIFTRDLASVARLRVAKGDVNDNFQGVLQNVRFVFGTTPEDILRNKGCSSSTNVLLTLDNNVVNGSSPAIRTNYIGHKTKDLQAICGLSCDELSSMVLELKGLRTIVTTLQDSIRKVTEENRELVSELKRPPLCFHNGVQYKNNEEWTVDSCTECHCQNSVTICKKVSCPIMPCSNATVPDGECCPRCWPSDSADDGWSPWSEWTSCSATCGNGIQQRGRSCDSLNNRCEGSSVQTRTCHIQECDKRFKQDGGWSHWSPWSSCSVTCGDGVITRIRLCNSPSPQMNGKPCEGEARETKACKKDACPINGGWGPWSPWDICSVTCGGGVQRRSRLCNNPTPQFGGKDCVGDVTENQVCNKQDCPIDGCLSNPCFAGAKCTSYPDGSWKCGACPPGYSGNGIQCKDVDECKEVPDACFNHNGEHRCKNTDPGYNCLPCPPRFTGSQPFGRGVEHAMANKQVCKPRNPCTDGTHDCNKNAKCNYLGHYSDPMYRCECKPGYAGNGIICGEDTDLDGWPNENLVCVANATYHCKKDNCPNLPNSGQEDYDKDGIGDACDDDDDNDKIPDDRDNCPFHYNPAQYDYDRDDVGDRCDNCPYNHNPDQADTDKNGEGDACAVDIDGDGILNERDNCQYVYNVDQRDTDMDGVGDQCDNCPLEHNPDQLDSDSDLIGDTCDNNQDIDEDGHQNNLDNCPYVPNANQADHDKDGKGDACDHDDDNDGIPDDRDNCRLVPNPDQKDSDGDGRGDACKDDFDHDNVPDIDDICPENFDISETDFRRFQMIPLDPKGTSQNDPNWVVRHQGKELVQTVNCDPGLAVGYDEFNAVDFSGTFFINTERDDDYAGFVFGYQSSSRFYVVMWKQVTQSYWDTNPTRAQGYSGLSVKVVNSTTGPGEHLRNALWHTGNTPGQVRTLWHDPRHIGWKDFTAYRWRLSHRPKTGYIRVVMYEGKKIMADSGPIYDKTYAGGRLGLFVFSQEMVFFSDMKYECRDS

How the values were obtained:
[1] = molecular target: T1, Flag-FBLN7 (LV-FBLN7) in SVF cells (UniProt Q501P1); assay: co-IP; IP of Flag from SVF cells (ASPCs) infected with Flag-empty control (LV-Ctrl) or Flag-FBLN7 (LV-FBLN7), followed by immunoblot
T1 sequence: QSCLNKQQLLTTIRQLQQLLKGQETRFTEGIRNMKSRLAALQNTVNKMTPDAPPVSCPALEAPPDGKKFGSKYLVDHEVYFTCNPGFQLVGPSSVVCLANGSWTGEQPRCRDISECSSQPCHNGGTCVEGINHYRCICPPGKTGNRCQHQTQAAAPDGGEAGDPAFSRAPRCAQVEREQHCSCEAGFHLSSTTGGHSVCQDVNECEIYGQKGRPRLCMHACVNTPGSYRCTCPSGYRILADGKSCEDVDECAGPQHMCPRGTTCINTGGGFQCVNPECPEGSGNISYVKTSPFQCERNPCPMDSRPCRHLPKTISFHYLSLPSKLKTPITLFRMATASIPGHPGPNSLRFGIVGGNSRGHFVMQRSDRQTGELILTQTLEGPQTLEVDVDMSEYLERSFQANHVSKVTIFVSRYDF

[2] = molecular target: T2, full-length FBLN7-Flag (UniProt Q501P1); assay: co-IP; HEK293T cells co-transfected with HA-tagged TSP1 and FBLN7-Flag (full length, deletion mutants or point mutants); precipitated in both directions for the full-length protein
T2 sequence: T1 sequence

binding [1] | binding [2] | Substance
binds |  | TSP1 of SVF cells (ASPCs) (from UniProt P35441 19-1170)
 | binds | HA-tagged TSP1 (from UniProt P35441 19-1170)
